Patent publication US20130323284A1, “USE OF mTOR INHIBITORS TO TREAT BACTERIAL INFECTION” (JAZZYA INVESTMENTS, priority 2012, published 2013)
At least one structure is not confirmed: it was looked up by name or label, or the drawing left a doubt.

Columns and labels:
[1] = test system: phosphorylation of AKT, ERK and GSK3b; assay: Immunoblot of AKT, ERK and GSK3b phosphorylation in Klebsiella pneumoniae infected cells; format: cell-based; details: 20 μM; versus vehicle control DMSO
[2] = test system: CYLD; assay: Immunoblot analysis of CYLD levels in Klebsiella pneumoniae infected cells; format: cell-based; details: LY294002 20 mM; infected for 3 h; versus vehicle control
Description: An immunoblot analysis of CYLD levels in Klebsiella pneumoniae infected cells for 3 h in the presence of vehicle control (Kp) or PI3K inhibitor (LY294002, […]), AKT inhibitor ([…]), ERK inhibitor (U0126, […]) is shown. Membranes were reprobed for tubulin as a loading control.

[3] = test system: Klebsiella pneumoniae strain 52145; assay: Mouse pneumonia model: bacterial loads in tissues after intranasal infection; format: in vivo, mice

| SMILES | Klebsiella pneumoniae induced phosphorylation of AKT, ERK and GSK3b in the presence of inhibitor [1] | Klebsiella pneumoniae induced production of CYLD in the presence of inhibitor [2] | anti-Klebsiella pneumoniae activity in mouse testing [3] |
| --- | --- | --- | --- |
| O=c1cc(N2CCOCC2)oc2c(-c3ccccc3)cccc12 [LY294002] | PI3K-dependent manner | PI3K-AKT-ERK dependent manner |  |
| CO[C@H]1C[C@@H]2CC[C@@H](C)[C@@](O)(O2)C(=O)C(=O)N2CCCC[C@H]2C(=O)O[C@H]([C@H](C)C[C@@H]2CC[C@@H](O)[C@H](OC)C2)CC(=O)[C@H](C)/C=C(\C)[C@@H](O)[C@@H](OC)C(=O)[C@H](C)C[C@H](C)/C=C/C=C/C=C/1C [Rapamycin, (3S,6R,7E,9R,10R,12R,14S,15E,17E,19E,21S,23S,26R,27R,34aS)-9,10,12,13,14,-21,22,23,24,25,26,27,32,33,34,34a-hexadecahydro-9,27-dihydroxy-3-[(1R)-2-[-(1S,3R,4R)-4-hydroxy-3-methoxycyclohexyl]-1-methylethyl]-10,21-dimethoxy-6-,8,12,14,20,26-hexamethyl-23,27-epoxy-3H-pyrido[2,1-c] [1,4]-oxaazacyclohen-triacontine-1,5,11,28,29(4H,6H,31H)-pentone] |  |  | anti-Klebsiella pneumoniae activity |
